# Source: patent US10357479B2, “Angiotensin II receptor antagonist for the prevention or treatment of systemic diseases in cats” (priority 2006, dated 2019)
# Entries after “also recorded” stand apart in the source; their conditions may differ.
# Assay: Safety after repeated oral administration over four weeks (Example 3)
# Format: in vivo, cats
# Conditions: oral once daily days 0 to 27, groups II (1 mg/kg) and III (3 mg/kg)
# Procedure: The animals were allocated to 3 groups, 4 animals per group. […] The bottles with the test/control article looked identical with the exception of the animal no. in order to achieve blinding.
# Blood samples for haematology and clinical chemistry were collected from the animals on days-1 (i.e. prior to the first treatment) and again on days 3, 7, 14, 28. Body weights were measured weekly and electrocardiography recording were made on days-1, 14, 21 and 28. A detailed physical examination including determination of rectal temperature and respiratory rate was carried out on days-1, 7, 14, 22 and 28. Systolic blood pressure (once daily) and heart rate (twice daily) were determined five days per week beginning prior to treatment until necropsy. The palatability of the administered article was assessed at various time points throughout treatment using a scoring system. On day 28 of the study, all animals were subjected to necropsy and stomach and kidneys were examined histopathologically. Relevant parameters were analysed using appropriate statistical procedures.
smiles,measurement,value
"CCCc1nc2c(C)cc(-c3nc4ccccc4n3C)cc2n1Cc1ccc(-c2ccccc2C(=O)O)cc1 [telmisartan, 4′-[2-n-propyl-4-methyl-6-(1-methylbenzimidazol-2-yl)-benzimidazol-1-ylmethyl]-biphenyl-2-carboxylic acid]",palatability of the test article formulation,predominantly good or acceptable; also recorded: slightly impaired palatability
